From paper PMC9512495

Sequences of proteins named here, by UniProt entry; tags and fusion partners are left off. Residues count along the entry.
UniProt P46013: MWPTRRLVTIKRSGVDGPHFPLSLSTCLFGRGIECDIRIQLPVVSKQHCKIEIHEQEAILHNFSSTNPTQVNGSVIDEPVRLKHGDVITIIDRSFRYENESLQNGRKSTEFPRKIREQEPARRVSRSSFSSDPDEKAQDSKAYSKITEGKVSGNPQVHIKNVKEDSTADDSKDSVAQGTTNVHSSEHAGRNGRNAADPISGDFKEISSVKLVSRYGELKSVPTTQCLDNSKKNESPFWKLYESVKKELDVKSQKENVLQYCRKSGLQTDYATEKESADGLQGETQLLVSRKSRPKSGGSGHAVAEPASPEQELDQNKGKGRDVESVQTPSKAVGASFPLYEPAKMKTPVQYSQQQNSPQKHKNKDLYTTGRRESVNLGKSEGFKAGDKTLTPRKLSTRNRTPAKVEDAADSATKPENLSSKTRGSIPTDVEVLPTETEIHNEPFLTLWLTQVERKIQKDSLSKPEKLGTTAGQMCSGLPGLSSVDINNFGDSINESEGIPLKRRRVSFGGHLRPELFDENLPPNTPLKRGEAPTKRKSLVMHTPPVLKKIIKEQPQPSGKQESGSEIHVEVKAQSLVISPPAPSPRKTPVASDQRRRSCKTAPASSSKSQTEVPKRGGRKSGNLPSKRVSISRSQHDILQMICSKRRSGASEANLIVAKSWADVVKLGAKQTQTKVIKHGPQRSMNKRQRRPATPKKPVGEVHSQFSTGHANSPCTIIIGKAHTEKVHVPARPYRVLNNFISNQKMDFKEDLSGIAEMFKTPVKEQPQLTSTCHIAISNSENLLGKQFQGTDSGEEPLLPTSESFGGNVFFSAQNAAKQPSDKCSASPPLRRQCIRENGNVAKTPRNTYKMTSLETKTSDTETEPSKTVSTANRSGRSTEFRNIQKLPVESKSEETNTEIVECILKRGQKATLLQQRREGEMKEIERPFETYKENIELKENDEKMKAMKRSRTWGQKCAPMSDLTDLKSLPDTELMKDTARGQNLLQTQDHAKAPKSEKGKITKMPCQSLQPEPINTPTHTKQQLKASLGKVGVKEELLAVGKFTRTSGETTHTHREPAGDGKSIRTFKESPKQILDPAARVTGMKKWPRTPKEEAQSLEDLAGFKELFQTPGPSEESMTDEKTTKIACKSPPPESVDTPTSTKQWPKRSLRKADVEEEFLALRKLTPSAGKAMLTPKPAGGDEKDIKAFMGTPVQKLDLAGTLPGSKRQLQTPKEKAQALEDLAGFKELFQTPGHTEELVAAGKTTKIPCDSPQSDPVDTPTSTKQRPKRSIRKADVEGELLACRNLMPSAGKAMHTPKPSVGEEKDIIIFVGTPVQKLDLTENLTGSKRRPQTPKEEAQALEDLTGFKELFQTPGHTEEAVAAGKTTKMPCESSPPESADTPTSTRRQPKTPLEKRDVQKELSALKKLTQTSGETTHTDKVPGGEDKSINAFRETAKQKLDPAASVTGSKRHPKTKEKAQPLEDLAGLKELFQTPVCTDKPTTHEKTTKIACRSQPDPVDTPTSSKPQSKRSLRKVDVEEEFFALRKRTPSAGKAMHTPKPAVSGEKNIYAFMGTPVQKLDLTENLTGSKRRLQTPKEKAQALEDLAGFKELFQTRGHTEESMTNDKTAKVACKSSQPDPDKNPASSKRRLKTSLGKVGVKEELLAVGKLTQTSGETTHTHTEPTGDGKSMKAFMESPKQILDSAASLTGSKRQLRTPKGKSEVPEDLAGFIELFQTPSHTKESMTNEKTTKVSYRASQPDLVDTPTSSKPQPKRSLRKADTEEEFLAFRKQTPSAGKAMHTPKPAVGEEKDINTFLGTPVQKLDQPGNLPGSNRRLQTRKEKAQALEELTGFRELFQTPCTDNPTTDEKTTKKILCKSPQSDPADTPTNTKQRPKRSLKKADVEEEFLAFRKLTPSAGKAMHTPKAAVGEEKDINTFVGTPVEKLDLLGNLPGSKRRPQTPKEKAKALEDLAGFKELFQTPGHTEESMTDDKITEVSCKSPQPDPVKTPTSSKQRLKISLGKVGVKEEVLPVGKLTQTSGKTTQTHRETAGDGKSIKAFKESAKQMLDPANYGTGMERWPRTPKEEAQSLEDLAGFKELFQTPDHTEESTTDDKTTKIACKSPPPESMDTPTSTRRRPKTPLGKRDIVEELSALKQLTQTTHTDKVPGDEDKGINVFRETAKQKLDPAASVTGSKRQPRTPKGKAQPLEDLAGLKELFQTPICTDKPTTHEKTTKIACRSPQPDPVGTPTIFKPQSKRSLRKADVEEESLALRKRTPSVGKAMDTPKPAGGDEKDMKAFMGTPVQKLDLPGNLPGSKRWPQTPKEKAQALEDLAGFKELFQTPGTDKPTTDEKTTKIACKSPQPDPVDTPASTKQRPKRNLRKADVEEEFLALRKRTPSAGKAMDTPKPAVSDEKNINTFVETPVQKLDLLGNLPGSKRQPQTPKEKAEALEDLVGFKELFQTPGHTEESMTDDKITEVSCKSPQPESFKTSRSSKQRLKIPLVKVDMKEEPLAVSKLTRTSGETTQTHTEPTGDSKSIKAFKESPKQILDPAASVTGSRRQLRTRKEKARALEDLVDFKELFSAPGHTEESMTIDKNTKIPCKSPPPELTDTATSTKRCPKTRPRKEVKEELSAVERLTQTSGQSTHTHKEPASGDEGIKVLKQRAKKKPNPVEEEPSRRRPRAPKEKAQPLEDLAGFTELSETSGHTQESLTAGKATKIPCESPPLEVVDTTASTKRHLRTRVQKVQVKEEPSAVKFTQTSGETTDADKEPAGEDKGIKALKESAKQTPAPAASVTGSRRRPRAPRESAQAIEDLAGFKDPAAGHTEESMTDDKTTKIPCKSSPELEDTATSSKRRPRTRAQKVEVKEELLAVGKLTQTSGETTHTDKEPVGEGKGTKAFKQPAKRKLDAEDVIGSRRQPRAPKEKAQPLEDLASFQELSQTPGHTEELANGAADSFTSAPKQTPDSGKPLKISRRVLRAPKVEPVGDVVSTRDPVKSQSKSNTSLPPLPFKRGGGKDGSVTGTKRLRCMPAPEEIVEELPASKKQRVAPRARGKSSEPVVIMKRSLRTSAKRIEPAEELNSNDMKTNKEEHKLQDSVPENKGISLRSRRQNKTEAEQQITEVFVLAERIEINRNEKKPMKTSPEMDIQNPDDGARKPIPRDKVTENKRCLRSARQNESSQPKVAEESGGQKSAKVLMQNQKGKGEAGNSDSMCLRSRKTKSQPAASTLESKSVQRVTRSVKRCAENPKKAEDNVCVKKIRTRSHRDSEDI
UniProt P07355: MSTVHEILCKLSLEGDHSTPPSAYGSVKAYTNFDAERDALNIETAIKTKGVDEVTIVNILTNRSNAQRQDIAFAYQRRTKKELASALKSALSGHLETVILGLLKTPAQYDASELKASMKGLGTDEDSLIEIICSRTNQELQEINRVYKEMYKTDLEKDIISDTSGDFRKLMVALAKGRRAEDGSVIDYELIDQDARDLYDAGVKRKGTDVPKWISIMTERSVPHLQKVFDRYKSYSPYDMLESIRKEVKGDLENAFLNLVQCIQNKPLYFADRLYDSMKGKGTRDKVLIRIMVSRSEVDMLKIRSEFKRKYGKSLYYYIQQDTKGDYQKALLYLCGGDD
UniProt P04792: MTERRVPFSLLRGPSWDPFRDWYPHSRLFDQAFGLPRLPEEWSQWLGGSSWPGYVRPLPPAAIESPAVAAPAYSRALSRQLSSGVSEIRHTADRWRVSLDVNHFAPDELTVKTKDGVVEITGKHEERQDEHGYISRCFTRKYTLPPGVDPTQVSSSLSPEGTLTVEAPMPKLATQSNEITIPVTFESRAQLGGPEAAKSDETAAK
UniProt Q13751, residues 18-1172: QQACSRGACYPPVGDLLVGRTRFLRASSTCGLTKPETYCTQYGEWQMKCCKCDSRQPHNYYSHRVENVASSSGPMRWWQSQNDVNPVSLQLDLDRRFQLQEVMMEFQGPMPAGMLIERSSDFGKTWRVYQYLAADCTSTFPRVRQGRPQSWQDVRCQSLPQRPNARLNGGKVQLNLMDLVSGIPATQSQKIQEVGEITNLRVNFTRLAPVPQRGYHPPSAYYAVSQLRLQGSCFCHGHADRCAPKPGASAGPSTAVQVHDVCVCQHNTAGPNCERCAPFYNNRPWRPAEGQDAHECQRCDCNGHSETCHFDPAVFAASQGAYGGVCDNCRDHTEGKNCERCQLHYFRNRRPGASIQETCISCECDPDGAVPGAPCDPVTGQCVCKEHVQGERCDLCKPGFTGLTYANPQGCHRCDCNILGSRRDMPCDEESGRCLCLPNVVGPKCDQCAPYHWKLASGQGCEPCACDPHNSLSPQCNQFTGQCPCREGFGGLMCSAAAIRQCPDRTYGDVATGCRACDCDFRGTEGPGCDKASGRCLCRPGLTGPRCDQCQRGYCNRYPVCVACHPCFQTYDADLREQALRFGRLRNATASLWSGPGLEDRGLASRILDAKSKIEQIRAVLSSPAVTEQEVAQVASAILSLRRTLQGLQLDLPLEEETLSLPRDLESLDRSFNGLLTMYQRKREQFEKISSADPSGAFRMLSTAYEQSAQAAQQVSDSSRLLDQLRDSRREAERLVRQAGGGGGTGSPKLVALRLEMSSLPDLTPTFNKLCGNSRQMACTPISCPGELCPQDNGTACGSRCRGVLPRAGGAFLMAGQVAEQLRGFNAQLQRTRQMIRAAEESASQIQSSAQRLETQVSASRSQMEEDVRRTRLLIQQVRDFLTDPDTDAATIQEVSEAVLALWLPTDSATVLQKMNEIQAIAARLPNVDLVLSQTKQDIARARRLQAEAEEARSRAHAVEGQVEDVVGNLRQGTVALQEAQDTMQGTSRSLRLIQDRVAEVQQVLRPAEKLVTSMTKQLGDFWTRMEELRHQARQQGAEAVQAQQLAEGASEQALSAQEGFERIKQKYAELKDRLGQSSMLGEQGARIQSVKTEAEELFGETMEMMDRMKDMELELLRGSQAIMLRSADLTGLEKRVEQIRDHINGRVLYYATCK

T1: alanine aminotransferase 1 (human (endogenous in HepG2)) (UniProt P24298)
T1 sequence: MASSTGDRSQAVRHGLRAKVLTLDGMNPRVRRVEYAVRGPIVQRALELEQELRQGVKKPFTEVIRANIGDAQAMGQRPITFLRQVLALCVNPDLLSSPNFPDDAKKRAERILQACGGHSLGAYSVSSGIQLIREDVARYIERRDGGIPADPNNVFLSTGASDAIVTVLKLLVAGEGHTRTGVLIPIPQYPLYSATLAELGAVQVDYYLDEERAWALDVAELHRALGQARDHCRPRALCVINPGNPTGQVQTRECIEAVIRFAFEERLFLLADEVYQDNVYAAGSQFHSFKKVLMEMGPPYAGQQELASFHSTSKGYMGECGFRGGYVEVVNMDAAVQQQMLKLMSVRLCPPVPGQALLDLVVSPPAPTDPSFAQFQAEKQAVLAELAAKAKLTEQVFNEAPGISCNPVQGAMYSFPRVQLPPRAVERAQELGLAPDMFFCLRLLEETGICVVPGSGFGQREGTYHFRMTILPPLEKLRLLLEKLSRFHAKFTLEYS

B1: epithelial cell adhesion molecule (protein, UniProt P16422 24-314)
chain: QEECVCENYKLAVNCFVNNNRQCQCTSVGAQNTVICSKLAAKCLVMKAEMNGSKLGRRAKPEGALQNNDGLYDPDCDESGLFKAKQCNGTSMCWCVNTAGVRRTDKDTEITCSERVRTYWIIIELKHKAREKPYDSKSLRTALQKEITTRYQLDPKFITSILYENNVITIDLVQNSSQKTQNDVDIADVAYYFEKDVKGESLFHSKKMDLTVNGEQLDLDPGQTLIYYVDEKAPEFSMQGLKAGVIAVIVVVVIAVVAGIVVLVISRKKRMAKYEKAEIKEMGEMHRELNA
B2: apoptosis-stimulating protein 2 of p53 (protein, UniProt Q13625 1-1128)
chain: MMPMFLTVYLSNNEQHFTEVPVTPETICRDVVDLCKEPGESDCHLAEVWCGSERPVADNERMFDVLQRFGSQRNEVRFFLRHERPPGRDIVSGPRSQDPSLKRNGVKVPGEYRRKENGVNSPRMDLTLAELQEMASRQQQQIEAQQQLLATKEQRLKFLKQQDQRQQQQVAEQEKLKRLKEIAENQEAKLKKVRALKGHVEQKRLSNGKLVEEIEQMNNLFQQKQRELVLAVSKVEELTRQLEMLKNGRIDSHHDNQSAVAELDRLYKELQLRNKLNQEQNAKLQQQRECLNKRNSEVAVMDKRVNELRDRLWKKKAALQQKENLPVSSDGNLPQQAASAPSRVAAVGPYIQSSTMPRMPSRPELLVKPALPDGSLVIQASEGPMKIQTLPNMRSGAASQTKGSKIHPVGPDWSPSNADLFPSQGSASVPQSTGNALDQVDDGEVPLREKEKKVRPFSMFDAVDQSNAPPSFGTLRKNQSSEDILRDAQVANKNVAKVPPPVPTKPKQINLPYFGQTNQPPSDIKPDGSSQQLSTVVPSMGTKPKPAGQQPRVLLSPSIPSVGQDQTLSPGSKQESPPAAAVRPFTPQPSKDTLLPPFRKPQTVAASSIYSMYTQQQAPGKNFQQAVQSALTKTHTRGPHFSSVYGKPVIAAAQNQQQHPENIYSNSQGKPGSPEPETEPVSSVQENHENERIPRPLSPTKLLPFLSNPYRNQSDADLEALRKKLSNAPRPLKKRSSITEPEGPNGPNIQKLLYQRTTIAAMETISVPSYPSKSASVTASSESPVEIQNPYLHVEPEKEVVSLVPESLSPEDVGNASTENSDMPAPSPGLDYEPEGVPDNSPNLQNNPEEPNPEAPHVLDVYLEEYPPYPPPPYPSGEPEGPGEDSVSMRPPEITGQVSLPPGKRTNLRKTGSERIAHGMRVKFNPLALLLDSSLEGEFDLVQRIIYEVDDPSLPNDEGITALHNAVCAGHTEIVKFLVQFGVNVNAADSDGWTPLHCAASCNNVQVCKFLVESGAAVFAMTYSDMQTAADKCEEMEEGYTQCSQFLYGVQEKMGIMNKGVIYALWDYEPQNDDELPMKEGDCMTIIHREDEDEIEWWWARLNDKEGYVPRNLLGLYPRIKPRQRSLA
B3: protein disulfide-isomerase A6 (protein, UniProt Q15084 20-440)
chain: LYSSSDDVIELTPSNFNREVIQSDSLWLVEFYAPWCGHCQRLTPEWKKAATALKDVVKVGAVDADKHHSLGGQYGVQGFPTIKIFGSNKNRPEDYQGGRTGEAIVDAALSALRQLVKDRLGGRSGGYSSGKQGRSDSSSKKDVIELTDDSFDKNVLDSEDVWMVEFYAPWCGHCKNLEPEWAAAASEVKEQTKGKVKLAAVDATVNQVLASRYGIRGFPTIKIFQKGESPVDYDGGRTRSDIVSRALDLFSDNAPPPELLEIINEDIAKRTCEEHQLCVVAVLPHILDTGAAGRNSYLEVLLKLADKYKKKMWGWLWTEAGAQSELETALGIGGFGYPAMAAINARKMKFALLKGSFSEQGINEFLRELSFGRGSTAPVGGGAFPTIVEREPWDGRDGELPVEDDIDLSDVELDDLGKDEL

What follows are molecules tested against T1, alanine aminotransferase 1 (human (endogenous in HepG2)) (assay: affinity purification with mass spectrometry; co-IP from lysates of HepG2 cells transfected with ALT1 siRNA or negative control siRNA, eluted proteins iTRAQ-labelled (113-115 control, 116-118 ALT1 siRNA), TripleTOF 5600+ LC/MS; differentially expressed proteins taken as ALT1-interacting).

Q: KI67 (from UniProt P46013 1-3256) was tested. Which binding did it give?
A: The binding was “binds”.

Q: For annexin A2 (from UniProt P07355 1-339), which binding is on record?
A: The binding was “binds”.

Q: How did the binding turn out when “heat shock protein beta-1 (from UniProt P04792 1-205)” was run?
A: The binding was “binds”.

Q: With “laminin subunit beta-3 (from UniProt Q13751 18-1172)” as the molecule, how does the binding read?
A: The binding was “binds”.

Q: For B1, which binding is on record?
A: Its binding is “binds”.

Q: B2 was tested. Which binding did it give?
A: The binding was “binds”.

Q: B3 was tested. Which binding did it give?
A: The binding was “binds”.

Results are given in words; binding and its absence hold for the method and conditions named. Binding seen in cells or lysates may run through a third protein. A yes stands for co-enrichment or nearness to the bait. Other partners may have been found.
